Experimental findings from the supplement of paper PMC12819154, “High-throughput peptide-centric local stability assay extends protein–ligand identification to membrane proteins, tissues and bacteria” (Nature Structural & Molecular Biology, 2025) are described below.

Protein sequences, listed by entry. Tags and fused reporters are not part of them. Lines headed by an entry give the natural chain unless they say otherwise; changes in a name come on top.
UniProt Q86TB3: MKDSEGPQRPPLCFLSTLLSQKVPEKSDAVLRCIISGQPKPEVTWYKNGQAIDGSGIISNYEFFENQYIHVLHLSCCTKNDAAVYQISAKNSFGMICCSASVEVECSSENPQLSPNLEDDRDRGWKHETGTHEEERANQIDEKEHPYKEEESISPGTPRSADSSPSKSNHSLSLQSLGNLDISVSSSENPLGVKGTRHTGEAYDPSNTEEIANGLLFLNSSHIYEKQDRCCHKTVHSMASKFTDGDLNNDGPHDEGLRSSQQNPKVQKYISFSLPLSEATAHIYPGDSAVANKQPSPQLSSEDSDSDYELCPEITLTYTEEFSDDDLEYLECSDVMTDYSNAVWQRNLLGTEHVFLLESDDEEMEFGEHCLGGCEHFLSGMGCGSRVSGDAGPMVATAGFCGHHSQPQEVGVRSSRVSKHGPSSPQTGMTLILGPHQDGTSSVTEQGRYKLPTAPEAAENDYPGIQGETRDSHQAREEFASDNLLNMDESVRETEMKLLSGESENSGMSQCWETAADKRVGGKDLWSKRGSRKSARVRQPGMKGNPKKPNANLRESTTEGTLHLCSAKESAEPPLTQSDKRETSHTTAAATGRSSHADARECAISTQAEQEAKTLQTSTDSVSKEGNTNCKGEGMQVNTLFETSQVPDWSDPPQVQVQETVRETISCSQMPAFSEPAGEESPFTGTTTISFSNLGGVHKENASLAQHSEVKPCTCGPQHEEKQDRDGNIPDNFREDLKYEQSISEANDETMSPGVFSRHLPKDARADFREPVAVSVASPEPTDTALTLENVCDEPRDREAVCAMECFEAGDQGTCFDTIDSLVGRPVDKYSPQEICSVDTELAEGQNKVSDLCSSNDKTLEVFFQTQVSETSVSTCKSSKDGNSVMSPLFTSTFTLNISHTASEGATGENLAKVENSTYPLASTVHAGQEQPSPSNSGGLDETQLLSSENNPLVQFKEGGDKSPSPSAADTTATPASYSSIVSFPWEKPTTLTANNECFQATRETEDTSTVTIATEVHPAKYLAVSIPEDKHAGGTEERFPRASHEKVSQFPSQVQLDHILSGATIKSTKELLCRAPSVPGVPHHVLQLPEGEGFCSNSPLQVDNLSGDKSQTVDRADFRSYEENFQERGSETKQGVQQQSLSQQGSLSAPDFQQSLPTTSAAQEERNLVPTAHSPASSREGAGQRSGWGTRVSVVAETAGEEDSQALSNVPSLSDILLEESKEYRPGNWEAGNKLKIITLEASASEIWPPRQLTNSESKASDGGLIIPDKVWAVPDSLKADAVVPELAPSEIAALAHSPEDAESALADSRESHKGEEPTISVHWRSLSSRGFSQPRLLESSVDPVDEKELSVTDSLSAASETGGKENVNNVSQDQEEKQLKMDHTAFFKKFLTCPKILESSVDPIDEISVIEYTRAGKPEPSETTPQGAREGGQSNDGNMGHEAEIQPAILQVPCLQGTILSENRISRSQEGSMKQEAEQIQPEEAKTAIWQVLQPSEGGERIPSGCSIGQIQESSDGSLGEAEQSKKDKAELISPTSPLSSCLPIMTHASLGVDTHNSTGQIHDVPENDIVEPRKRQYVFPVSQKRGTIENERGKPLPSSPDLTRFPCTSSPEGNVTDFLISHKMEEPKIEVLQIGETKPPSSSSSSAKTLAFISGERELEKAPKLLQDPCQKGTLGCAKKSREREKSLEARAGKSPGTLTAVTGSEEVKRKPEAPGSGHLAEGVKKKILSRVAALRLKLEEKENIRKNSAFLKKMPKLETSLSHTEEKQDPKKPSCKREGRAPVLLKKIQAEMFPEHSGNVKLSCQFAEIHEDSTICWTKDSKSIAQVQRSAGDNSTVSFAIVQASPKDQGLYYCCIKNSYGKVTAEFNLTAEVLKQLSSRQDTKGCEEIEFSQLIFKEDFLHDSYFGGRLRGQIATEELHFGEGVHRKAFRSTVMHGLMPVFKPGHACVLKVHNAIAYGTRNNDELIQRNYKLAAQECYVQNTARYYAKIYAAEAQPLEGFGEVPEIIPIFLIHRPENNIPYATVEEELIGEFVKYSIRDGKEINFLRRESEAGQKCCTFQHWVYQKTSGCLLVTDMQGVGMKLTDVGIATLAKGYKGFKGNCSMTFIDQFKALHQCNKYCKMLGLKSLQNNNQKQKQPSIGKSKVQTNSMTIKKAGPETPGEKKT
UniProt Q86TU7: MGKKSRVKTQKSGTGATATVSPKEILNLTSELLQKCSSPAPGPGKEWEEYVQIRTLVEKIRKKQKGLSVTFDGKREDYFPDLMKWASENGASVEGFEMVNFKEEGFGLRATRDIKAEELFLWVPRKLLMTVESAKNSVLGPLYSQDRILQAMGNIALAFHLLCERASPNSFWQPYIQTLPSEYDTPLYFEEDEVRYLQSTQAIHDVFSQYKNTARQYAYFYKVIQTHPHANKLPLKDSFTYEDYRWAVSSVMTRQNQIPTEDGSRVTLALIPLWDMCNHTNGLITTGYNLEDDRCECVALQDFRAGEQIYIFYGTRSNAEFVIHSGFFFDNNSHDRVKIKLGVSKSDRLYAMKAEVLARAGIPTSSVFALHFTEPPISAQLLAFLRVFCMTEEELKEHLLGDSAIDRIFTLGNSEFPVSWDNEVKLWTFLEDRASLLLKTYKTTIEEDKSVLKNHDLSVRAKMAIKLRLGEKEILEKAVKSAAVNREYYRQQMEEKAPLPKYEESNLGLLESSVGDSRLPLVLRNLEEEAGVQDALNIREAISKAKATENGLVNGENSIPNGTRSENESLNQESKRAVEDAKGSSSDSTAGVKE
UniProt Q6ZT12: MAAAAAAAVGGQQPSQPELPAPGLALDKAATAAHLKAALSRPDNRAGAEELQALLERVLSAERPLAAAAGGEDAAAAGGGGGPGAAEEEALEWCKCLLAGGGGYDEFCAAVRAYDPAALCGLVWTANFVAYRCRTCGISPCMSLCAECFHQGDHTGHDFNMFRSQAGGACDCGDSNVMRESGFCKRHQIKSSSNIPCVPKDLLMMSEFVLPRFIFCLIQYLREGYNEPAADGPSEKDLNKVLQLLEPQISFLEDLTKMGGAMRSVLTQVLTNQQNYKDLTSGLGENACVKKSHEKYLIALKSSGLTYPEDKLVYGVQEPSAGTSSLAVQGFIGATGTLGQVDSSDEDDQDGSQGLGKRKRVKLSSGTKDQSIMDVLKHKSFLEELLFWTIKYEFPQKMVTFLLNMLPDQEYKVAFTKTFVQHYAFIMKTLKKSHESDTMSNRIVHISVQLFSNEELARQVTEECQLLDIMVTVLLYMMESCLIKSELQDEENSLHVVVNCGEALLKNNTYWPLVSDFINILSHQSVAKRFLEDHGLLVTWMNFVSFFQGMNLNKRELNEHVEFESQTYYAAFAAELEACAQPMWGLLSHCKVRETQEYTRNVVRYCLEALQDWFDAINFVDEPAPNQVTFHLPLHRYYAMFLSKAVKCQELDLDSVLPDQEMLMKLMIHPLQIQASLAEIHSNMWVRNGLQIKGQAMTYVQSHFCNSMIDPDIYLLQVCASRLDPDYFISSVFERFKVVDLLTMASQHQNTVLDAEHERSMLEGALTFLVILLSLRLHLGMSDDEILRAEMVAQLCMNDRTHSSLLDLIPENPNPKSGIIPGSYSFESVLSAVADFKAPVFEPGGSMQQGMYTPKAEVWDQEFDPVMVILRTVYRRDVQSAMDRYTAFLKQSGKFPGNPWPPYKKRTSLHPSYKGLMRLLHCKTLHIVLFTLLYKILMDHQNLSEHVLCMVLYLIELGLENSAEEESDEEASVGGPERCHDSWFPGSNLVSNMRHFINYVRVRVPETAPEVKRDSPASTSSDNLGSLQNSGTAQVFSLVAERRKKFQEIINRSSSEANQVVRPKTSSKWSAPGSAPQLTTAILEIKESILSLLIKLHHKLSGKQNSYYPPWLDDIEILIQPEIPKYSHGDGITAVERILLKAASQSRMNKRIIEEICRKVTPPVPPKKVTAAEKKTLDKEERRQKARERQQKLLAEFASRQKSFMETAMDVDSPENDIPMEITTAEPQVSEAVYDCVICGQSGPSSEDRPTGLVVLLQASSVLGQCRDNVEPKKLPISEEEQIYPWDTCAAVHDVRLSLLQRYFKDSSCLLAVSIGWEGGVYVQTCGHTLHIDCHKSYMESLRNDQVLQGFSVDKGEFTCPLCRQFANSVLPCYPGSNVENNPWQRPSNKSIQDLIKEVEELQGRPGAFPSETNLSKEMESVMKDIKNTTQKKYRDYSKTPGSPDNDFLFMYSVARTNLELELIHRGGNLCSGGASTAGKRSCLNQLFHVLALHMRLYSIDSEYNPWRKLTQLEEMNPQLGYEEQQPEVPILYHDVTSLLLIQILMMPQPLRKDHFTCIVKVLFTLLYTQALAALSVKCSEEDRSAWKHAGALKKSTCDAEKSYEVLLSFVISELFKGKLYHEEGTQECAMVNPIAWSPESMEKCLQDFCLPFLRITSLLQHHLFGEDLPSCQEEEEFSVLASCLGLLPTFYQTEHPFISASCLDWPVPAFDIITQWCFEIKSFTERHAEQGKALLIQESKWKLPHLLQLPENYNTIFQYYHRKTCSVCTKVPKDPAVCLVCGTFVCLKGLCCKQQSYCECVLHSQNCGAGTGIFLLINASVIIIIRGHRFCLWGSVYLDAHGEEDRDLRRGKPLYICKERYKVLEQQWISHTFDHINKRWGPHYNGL
UniProt Q7LDG7: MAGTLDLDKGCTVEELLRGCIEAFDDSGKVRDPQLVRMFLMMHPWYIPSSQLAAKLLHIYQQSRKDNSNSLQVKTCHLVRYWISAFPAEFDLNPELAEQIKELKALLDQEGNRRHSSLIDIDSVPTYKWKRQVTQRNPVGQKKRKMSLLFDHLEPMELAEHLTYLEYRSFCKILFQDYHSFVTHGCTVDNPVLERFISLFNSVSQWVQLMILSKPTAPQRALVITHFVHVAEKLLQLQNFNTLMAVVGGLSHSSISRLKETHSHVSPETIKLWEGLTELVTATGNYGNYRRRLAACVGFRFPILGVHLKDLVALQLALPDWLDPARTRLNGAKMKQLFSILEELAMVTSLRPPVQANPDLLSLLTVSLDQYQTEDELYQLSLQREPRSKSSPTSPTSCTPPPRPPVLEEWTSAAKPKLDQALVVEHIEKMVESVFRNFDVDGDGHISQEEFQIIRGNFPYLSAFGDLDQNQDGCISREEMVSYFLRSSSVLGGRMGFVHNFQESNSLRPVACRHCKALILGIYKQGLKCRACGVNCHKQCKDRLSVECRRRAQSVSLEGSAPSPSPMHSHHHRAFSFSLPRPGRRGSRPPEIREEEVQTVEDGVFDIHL
UniProt Q86TI2: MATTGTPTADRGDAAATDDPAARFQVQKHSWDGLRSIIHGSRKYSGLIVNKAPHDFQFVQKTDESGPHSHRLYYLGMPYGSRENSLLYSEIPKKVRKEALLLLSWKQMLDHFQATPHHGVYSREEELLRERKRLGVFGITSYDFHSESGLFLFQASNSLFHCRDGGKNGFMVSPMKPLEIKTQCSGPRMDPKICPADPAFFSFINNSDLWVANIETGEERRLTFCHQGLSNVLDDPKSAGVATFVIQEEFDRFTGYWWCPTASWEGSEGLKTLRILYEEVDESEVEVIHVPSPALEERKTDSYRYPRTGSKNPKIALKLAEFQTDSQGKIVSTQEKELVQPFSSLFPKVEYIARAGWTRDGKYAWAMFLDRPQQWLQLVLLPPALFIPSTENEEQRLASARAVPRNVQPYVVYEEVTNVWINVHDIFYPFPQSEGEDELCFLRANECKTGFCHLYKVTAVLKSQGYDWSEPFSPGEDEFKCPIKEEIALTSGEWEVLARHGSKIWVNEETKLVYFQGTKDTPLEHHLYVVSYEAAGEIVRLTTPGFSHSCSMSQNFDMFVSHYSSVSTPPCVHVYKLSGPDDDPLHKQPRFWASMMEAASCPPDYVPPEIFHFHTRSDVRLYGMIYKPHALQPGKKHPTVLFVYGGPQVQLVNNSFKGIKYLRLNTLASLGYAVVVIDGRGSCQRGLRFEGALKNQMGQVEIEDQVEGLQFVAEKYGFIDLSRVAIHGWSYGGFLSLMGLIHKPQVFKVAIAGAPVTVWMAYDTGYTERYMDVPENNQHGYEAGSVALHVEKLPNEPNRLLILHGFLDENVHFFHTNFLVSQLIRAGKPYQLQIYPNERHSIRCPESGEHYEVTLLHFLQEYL

The list shows a part of the results. Most values lie at the level of the controls, where differences are scatter.

Compound in the experiment: Cc1nc(Nc2ncc(C(=O)Nc3c(C)cccc3Cl)s2)cc(N2CCN(CCO)CC2)n1 [dasatinib]
Description: log2 fold change of tryptic peptide abundance, ligand vs vehicle (limited proteolysis) (log2 ratio); higher = more trypsin-susceptible (destabilized). The conditions noted are these: ligand concentration: 5 uM; sample: K562 cleared lysate.
As to “UniProt Q86TB3 (peptide sequence: RESEAGQK, peptide start residue: 2053)”, the log2 fold change worked out at 0.231. Then “UniProt Q6ZMV8 (peptide sequence: IHTGEKPYECEECGK, peptide start residue: 335)”, with -0.153.

In the case of “UniProt Q6ZMI0 (peptide sequence: QREEIDTLK, peptide start residue: 759)”, the log2 fold change is 0.5. Then “SDCCAG8 (peptide sequence: YTYDKLGK, peptide start residue: 630) (UniProt Q86SQ7)”, with -0.47; and “SETD3 (peptide sequence: EDYFPDLMK, peptide start residue: 76) (UniProt Q86TU7)”, with -0.317. Then “UBR3 (peptide sequence: GGNLCSGGASTAGK, peptide start residue: 1467) (UniProt Q6ZT12)”, with 0.621; and “RASGRP2 (peptide sequence: HSSLIDIDSVPTYK, peptide start residue: 115) (UniProt Q7LDG7)”, with -0.494. Then “ANKS3 (peptide sequence: GQVCQEQELR, peptide start residue: 527) (UniProt Q6ZW76)”, with 0.242; and “DPP8 (peptide sequence: LEPFYVER, peptide start residue: 48) (UniProt Q6V1X1)”, with 0.0943; and “KIF21A (peptide sequence: IEGCHICTSVTPGEPQVFLGKDK, peptide start residue: 25) (UniProt Q7Z4S6)”, with 0.207. For the target “DPP9 (peptide sequence: KYSGLIVNKAPHDFQFVQK, peptide start residue: 43) (UniProt Q86TI2)”, the log2 fold change stood at 0.433.
